Experimental data from the supplement of paper PMC3334620.
Over roughly 33,000 sequences, “E-score (-0.5 to 0.5)” has its median near -0.0014; the highest 2% begin near 0.25. Some of the results follow.

What follows are sequences tested against T1, Cad1 (UniProt P24813) (assay: PBM E-score (8-mer binding enrichment) (E-score (-0.5 to 0.5)); higher = stronger / more preferred TF binding). Details: protein concentration: 100 nM; construct: GST-full length.
T1 sequence: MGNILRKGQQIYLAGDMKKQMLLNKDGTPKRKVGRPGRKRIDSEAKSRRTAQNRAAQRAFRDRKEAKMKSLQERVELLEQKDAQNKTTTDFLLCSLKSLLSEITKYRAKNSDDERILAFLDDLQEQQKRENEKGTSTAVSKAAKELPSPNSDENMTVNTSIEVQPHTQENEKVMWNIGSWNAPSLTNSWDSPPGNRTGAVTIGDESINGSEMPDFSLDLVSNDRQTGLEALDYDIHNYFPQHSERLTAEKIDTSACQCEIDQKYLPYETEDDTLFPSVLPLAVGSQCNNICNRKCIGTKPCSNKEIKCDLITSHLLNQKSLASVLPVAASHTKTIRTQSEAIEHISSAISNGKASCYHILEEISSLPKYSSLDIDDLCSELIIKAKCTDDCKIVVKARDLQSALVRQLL
Protocol: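 Universal 'all 10-mer' protein binding microarrays (Agilent AMADID 015681) probed with GST-tagged S. cerevisiae TFs (full-length or DBD) made by in vitro transcription/translation (PURExpress), about 100-200 nM. Bound TF was detected with fluorescent anti-GST. Each ungapped 8-mer (which stands for itself and its reverse complement) is scored by the PBM enrichment score (E-score), a modified Wilcoxon-Mann-Whitney statistic from -0.5 to +0.5, computed with the Universal PBM Analysis Suite. Scale: above 0.35 generally sequence-specific binding.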

| Sequence | PBM E-score |
| --- | --- |
| CCCTAGAC | -0.157 |
| AGTCCCTG | -0.212 |
| GACTTCGC | 0.0624 |
| CTGTTTGA | -0.00915 |
| CGCTGTTC | 0.00447 |
| TGGCTTAA | 0.156 |
| AAGGTTCA | -0.0378 |
| TCGCTAGA | 0.0334 |
| TAACTCTA | -0.0689 |
| GCGCTAGA | 0.162 |
| CAGAACAC | -0.0563 |
| TTGGCCAA | -0.204 |
| AGGCCGAC | -0.0602 |
| AAGAGTAT | -0.159 |
| AGCACAGC | 0.125 |
| CTGTCCGA | 0.189 |
| CACAAGAC | -0.105 |
| AACAGGCT | -0.104 |
| CATATCCA | -0.105 |
| CAAATCCC | -0.171 |
| AAGCCTGG | -0.114 |
| CCTGTGGC | -0.193 |
| ATGGATCA | -0.0508 |
| ACACCAGG | -0.166 |
| AAATCAAC | 0.00702 |

Look-ups from the list:
Value for AACAGGCT under PBM E-score: -0.104
Value for TAACTCTA under PBM E-score: -0.0689
Value for CATATCCA under PBM E-score: -0.105
Value for AAATCAAC under PBM E-score: 0.00702

Further records

| Sequence | PBM E-score |
| --- | --- |
| CTCGCTCC | -0.0617 |
| AGGTATTC | 0.0115 |
| ACGCGGGC | 0.0965 |
| AATACGCA | 0.0688 |
| AGCGAGCA | 0.0824 |
| GTCGCCTA | -0.11 |
| CGAGCCAA | 0.00822 |
| CCACGGAC | -0.144 |
| AGCGGGTG | -0.0881 |
| GATTACAC | 0.156 |
| GCAAGGGA | -0.135 |
| ATATTATC | 0.096 |
| ACCTTCAC | -0.0345 |
| CTAGGCCC | -0.265 |
| AGTCGCTA | -0.0236 |
| CATAGCCA | 0.0256 |
| GACCGTAC | -0.287 |
| CACTGAAA | 0.0823 |
| ATCCTATA | 0.065 |
| ATGTCCAC | 0.0105 |
| GTGGGACA | -0.0497 |
| CAAGTCCC | -0.291 |
| ACGTCACC | 0.0158 |
| CGATAATC | -0.016 |
| AGTATATC | 0.0175 |

| Sequence | PBM E-score |
| --- | --- |
| CGGTTTTC | 0.139 |
| ATCGACAT | 0.212 |
| ATGTAGGA | -0.151 |
| CGTAACTA | -0.001 |
| AAAAGAGC | -0.0189 |
| CGTTCGGC | -0.00541 |
| CTACCATC | -0.119 |
| AGAGCTTA | 0.0343 |
| ATCTCATA | 0.0481 |
| CCCGGAAC | -0.0598 |
| AACTGTAA | 0.243 |
| GAGGCCGC | -0.154 |
| GCTGCACC | -0.124 |
| CGCATTAC | 0.0529 |
| ACCTCATC | -0.156 |
| CGGGCTTA | 0.0305 |
| CGGACCCG | -0.117 |
| CCCGTGTA | -0.175 |
| CAGAGCGG | -0.151 |
| AGTTGTTG | -0.106 |
| CCTGCCTA | -0.0584 |
| ATATACTA | 0.259 |
| AAGAAACG | 0.0597 |
| TCAGTCGA | 0.151 |
| CCTGAGAA | -0.0053 |

| Sequence | PBM E-score |
| --- | --- |
| GACATGTC | -0.0393 |
| GTTATGCA | 0.0393 |
| AAAAAACA | 0.156 |
| ACCCGGAC | -0.179 |
| ATTATCTA | 0.239 |
| GGATCCGA | -0.00022 |
| GGCTACCC | -0.276 |
| ATCATACC | -0.022 |
| GAAGGCGA | -0.0753 |
| CTGCAACA | 0.0811 |
| CCTGTGTA | 0.0937 |
| ATCTATCA | 0.144 |
| AAGATATA | 0.0978 |
| AGAGATAC | 0.165 |
| AGGGTGTC | -0.0231 |
| CAGGAGAG | -0.257 |
| CCAAGAGG | -0.252 |
| AGAGCAAA | -0.141 |
| GTCTGCTA | 0.218 |
| CCCCCTCG | -0.377 |
| CAAGACCA | -0.0255 |
| ATAGAATA | 0.191 |
| AAGGAGGC | -0.3 |
| ACTTCTGC | 0.0398 |
| CATGACGC | -0.0248 |

| Sequence | PBM E-score |
| --- | --- |
| ATTATGGG | -0.0198 |
| CGTCGGCC | -0.0542 |
| GAGCCTTA | -0.0105 |
| GACTTGGC | -0.305 |
| ATGACAAG | 0.127 |
| GTCATTCA | 0.0207 |
| GCAAAACA | 0.00562 |
| GTACGTAC | 0.0441 |
| CGCGGGGA | 0.027 |
| ACCCGTAA | -0.103 |
| CCCTCGAC | -0.0126 |
| AATACTAT | -0.0768 |
| GAGACCTC | -0.179 |
| CTCGGCGC | 0.069 |
| CACGGTGA | 0.155 |
| CGGCCATA | -0.0142 |
| ACGCAATG | -0.0109 |
| AGGTCTTA | -0.0298 |
| ATGTAAAG | 0.084 |
| CAGCATAG | 0.126 |
| CAGAGTCG | -0.0666 |
| CGCCATAG | -0.00884 |
| ATAGCACC | -0.0406 |
| CTCAGAAA | 0.0689 |
| ACTTGTTG | -0.216 |

| Sequence | PBM E-score |
| --- | --- |
| CTTACCCC | -0.253 |
| ACCAATAT | 0.306 |
| ATGTACCG | -0.0631 |
| AAGGAGTG | -0.0916 |
| CAGACTAA | -0.0613 |
| CGGCTCTA | 0.0485 |
| AGTACGCA | -0.129 |
| AAGAGACG | 0.127 |
| CGCCAAGC | -0.256 |
| AACAGCAA | 0.106 |
| ACCTCGCA | -0.0868 |
| AACCGTGA | 0.0747 |
| ACACACGC | 0.0891 |
| CACGGTAA | -0.0753 |
| CATTACGG | -0.144 |
| GGTCTAGA | -0.081 |
| GCGCATAC | 0.0238 |
| CCTTTTCG | -0.12 |
| ACGTCTAA | -0.0112 |
| ATCTAAAG | 0.0132 |
| CTTAGGCC | 0.0557 |
| AGTTGCCG | -0.0113 |
| CCGTTCAG | 0.00401 |
| CTCCCCAA | -0.148 |
| AATTATTA | 0.249 |

| Sequence | PBM E-score |
| --- | --- |
| CTCCTCAA | -0.199 |
| CGCTAGCC | -0.207 |
| GTTCCCAA | 0.0533 |
| CCGATATA | -0.00547 |
| GCGCAACC | 0.0308 |
| CGCAACAC | 0.131 |
| CCGTCCAG | -0.0511 |
| GCTAAGCC | -0.109 |
| GTGCCATA | -0.215 |
| GATGATGC | -0.0747 |
| TAACGCAA | -0.00978 |
| CCGCGTAG | 0.0464 |
| GGATACTA | -0.0698 |
| GAACGTTA | -0.0273 |
| ACACAGGC | 0.0337 |
| GATCCCCC | -0.366 |
| GGAACCAA | 0.164 |
| AAGAGTGG | -0.21 |
| CGACTCCA | -0.0472 |
| GGTCGATA | -0.125 |
| GAGATGAC | -0.00686 |
| CCCCATCG | 0.0338 |
| CGGACATA | 0.117 |
| ATACGGCC | 0.0469 |
| CCATCTGC | -0.00947 |

| Sequence | PBM E-score |
| --- | --- |
| AACCAGAC | -0.0829 |
| GCCAAATA | 0.0976 |
| GCCGATCC | -0.141 |
| GTGGTGCA | -0.087 |
| AGTGCAAC | -0.00855 |
| CGCAATAC | 0.228 |
| GAGCATCC | -0.169 |
| AAACGCAA | 0.191 |
| GTGCTCGA | -0.0706 |
| GTGTGGTA | -0.152 |
| CCCAGTGA | -0.221 |
| GACTTTGA | -0.00841 |
| ATAATATC | 0.196 |
| AAGTCGGG | 0.027 |
| ACCGCCCG | -0.241 |
| CCCAGTTA | -0.258 |
| CACATGTA | 0.109 |
| AGTCTCAT | -0.0485 |
| CTGTATTA | 0.0709 |
| CGTTGGTA | 0.141 |
| CTCGACAC | 0.162 |
| CTATTGGA | 0.0791 |
| CTAGGGAA | -0.105 |
| GGATAGTA | 0.122 |
| CTGATTAC | 0.334 |

| Sequence | PBM E-score |
| --- | --- |
| GTCACCGA | 0.0135 |
| CCGTAGGC | -0.152 |
| GACAGCCC | 0.0111 |
| ACATGCAC | -0.0512 |
| TATTAGCA | 0.108 |
| CTATCTGC | -0.0269 |
| GGGAAATA | 0.00695 |
| CCCGCAGC | -0.0683 |
| GCCACGTA | -0.153 |
| GATCGCAA | 0.15 |
| CAACGGCA | -0.128 |
| GGCAGTTA | -0.0634 |
| AAATGAAC | 0.075 |
| CATGCTTC | -0.146 |
| CGCGGTCC | -0.164 |
| CAGCTACG | -0.184 |
| GTCATTAA | 0.226 |
| GACAGATA | 0.0715 |
| CCTAGCAG | -0.177 |

Three entries drawn at random from the list so far:

| Sequence | PBM E-score |
| --- | --- |
| AACCGTGA | 0.0747 |
| CTTACCCC | -0.253 |
| GTGCTCGA | -0.0706 |
